In this series the target is T1, MS2 coat protein, dlFG mutant del68-81insG (Escherichia phage MS2) (UniProt P03612).
T1 sequence (looked up, limits assumed): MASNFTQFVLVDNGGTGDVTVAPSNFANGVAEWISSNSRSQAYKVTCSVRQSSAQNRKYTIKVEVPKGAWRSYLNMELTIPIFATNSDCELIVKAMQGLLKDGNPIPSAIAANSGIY
The experiment in a line: binding assay. The note with it: 4 mM Mg2+, RNA-MaP array, 100 mM Tris-HCl pH 7.5, 80 mM KCl, 4 mM MgCl2, 0.1 mg/mL BSA, 1 mM DTT, 0.01 mg/mL yeast tRNA, 0.01% Tween-20, protein 1.5 nM to 3 uM, 37 C (Table S3), purified recombinant protein.

Setting [1] is: no ligand, variant of MS2 control.

The results in this text go back to paper PMC9170038, “Crowdsourced RNA design discovers diverse, reversible, efficient, self-contained molecular switches”.

Protein sequences can lack the tags named with them.

Turning to “AAAAUCACAUGAGGAUCACCCAUGUACCGAGUUAAGGCUACAUAGGAUAUGACAAGUAUAGCUUGUCAGAAGGGUGAGUCUCGC [Eterna 6149019 (Same State NG 3)]”, under “FMN 200 uM”, the Kd is greater than 3000 nM. Regarding “AACCAACAUGAGGAUCACCCAUGUUCUCAGACGUUUAGGUCACAGGAUAUUCGUGCUUGUGGGACGGAGAAGGGUGCCUCGCUG [Eterna 6149060 (Same State NG 3)]”, where the note is “no ligand”, the Kd is greater than 3000 nM. On to “CACGGACGAGUGGAUCACCCUCGUAAUAACCGAGGACCGGUACGGCCGCCACUCGAAAACCGUGACCUGUACGAAAAGUGCAGGA [Eterna 7707630 (Same State - Tryptophan A)]”, for which the Kd under setting [1] is greater than 3000 nM.

Regarding “CACGGACGAGUGGAUCACCCUUGUAAUAACCGAGGACCGGUACGGCCGCCACUCGAAAACCGUGACCUGUACGAAAAGUGCAGGA [Eterna 7707632 (Same State - Tryptophan A)]”, the Kd under setting [1] is greater than 3000 nM. On to “CAUGUCCUCACAGGAUAUGCUGGACUUUGUCCAGCAGAAGGGUGAUAACAUGAGGAUCACCCAUGUGGACAUGAUAUAUUUAAU [Eterna 6130530 (Same State NG 1)]”, for which the Kd (no ligand) is greater than 3000 nM. The same measure, in the same setting: to “GUAUGAGCGAUAGGAUAUACUGAGAUUGAAUGGGUAGAAGGAUCUCUUGUGAGGAAGACAUGAGGAUCACCCAUGUCACGGGCC [Eterna 6123862 (Same State NG 1)]” belongs greater than 3000 nM; to “GUGGUUCUCGUAGGAUAUGUAGGAUAUGCCUACAUGAGGAUCACCCAUGUUCGCAUGGCAGAAGGACAGAAGGACGAUCACCAG [Eterna 6153683 (Same State NG 2)]”, greater than 3000 nM. With “UAGACACUUACAGGAUAUAGGGCAGAGGGUGCCCUAGAAGGGUGAACAUGAGGAUCACCCAUGUAUGUGUCUGAUUAGAAGGCA [Eterna 6148599 (Same State NG 1)]”, for the setting “FMN 200 uM”, the Kd was greater than 3000 nM. With “UCGUAUACACAAGGAUAUCGAUGGCUUGUAGAUGCUACAUGAGGAUCACCCAUGUUUUUAUAUUGUGAGAAGGUGUAGUGUCGU [Eterna 6124273 (Same State NG 2)]”, the dissociation constant (Kd) (no ligand) was greater than 3000 nM. “UCGUUUUAGUCGGCCGCCACUGAACUCAUGUUCAACAUGAGGAUCACCCAUGUACCUUAUUUUAACAGGACCGGGACGUAAUAGA [Eterna 7612119 (Exclusion - Tryptophan B)]”: where the note is “L-tryptophan 2.4 mM”, the Kd is greater than 3000 nM.
